Data as given in PubChem BioAssay AID1159584 (Peter MacCallum Cancer Centre, 2016)

Aim: 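Genes whose loss is lethal only together with E-cadherin loss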 (primary screen)
Cells: human MCF10A breast epithelial cells, parental and CDH1-null
Reagent: siRNA against human genes
Detection: 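Cell viability by CellTiter-Glo ATP luminescence, each line scaled to the mean of mock wells across plates, then CDH1-null over parental ratio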
Scale: CDH1-null / parental viability ratio: higher = CDH1-null cells survive relatively better than parental
The deposit covers about 18,000 reagents; shown is an unselected part. Further read-outs or replicates are left out here. No sequences are given here. The record does not give: the amount of reagent, the time to read-out.

The first 2 entries as a preview:
{"gene symbol":"ADAM7","CDH1-null / parental viability ratio":1.27}
{"gene symbol":"MRPL55","CDH1-null / parental viability ratio":1.35}

The listing, from the start:
{"gene symbol":"ADAM7","CDH1-null / parental viability ratio":1.27}
{"gene symbol":"MRPL55","CDH1-null / parental viability ratio":1.35}
{"gene symbol":"MAGOH","CDH1-null / parental viability ratio":1.12}
{"gene symbol":"ACY1","CDH1-null / parental viability ratio":1.21}
{"gene symbol":"RRAGD","CDH1-null / parental viability ratio":1.21}
{"gene symbol":"MRM1","CDH1-null / parental viability ratio":1.19}
{"gene symbol":"ZNF326","CDH1-null / parental viability ratio":0.82}
{"gene symbol":"SLC35F4","CDH1-null / parental viability ratio":1}
{"gene symbol":"ARID5A","CDH1-null / parental viability ratio":0.99}
{"gene symbol":"NUP85","CDH1-null / parental viability ratio":1.2}
{"gene symbol":"CLEC10A","CDH1-null / parental viability ratio":1.2}
{"gene symbol":"STARD5","CDH1-null / parental viability ratio":1.25}
{"gene symbol":"METTL25","CDH1-null / parental viability ratio":1.05}
{"gene symbol":"CSTF1","CDH1-null / parental viability ratio":0.82}
